These are yes or no findings as the source states them, for the method shown. Some entries that bind do so weakly or less than the wild type.
Key:
[1] = target: human aryl hydrocarbon nuclear translocator (hARNT) (human) (UniProt P27540); experiment: native gel or EMSA; in vitro synthesized AhR and ARNT translation mixtures and MEDGK buffer (25 mM MOPS pH 7.5, 1 mM EDTA, 1 mM dithiothreitol, 10% glycerol, 150 mM KCl) mixed 1:1:8, incubated with TCDD (20 nM), 1,2-NQ or 1,4-NQ (0.5 nM-1 uM) for 2 h at room temperature, then mixed with [32P]-labeled DRE3 oligonucleotide; inducible AhR:ARNT:DRE complex resolved by gel retardation; complex corrected for DMSO control
[2] = target: mouse aryl hydrocarbon nuclear translocator (mARNT) (mouse) (UniProt P53762); experiment: as above

Chains of the proteins cited; added tags and fusions are not shown.
UniProt P27540: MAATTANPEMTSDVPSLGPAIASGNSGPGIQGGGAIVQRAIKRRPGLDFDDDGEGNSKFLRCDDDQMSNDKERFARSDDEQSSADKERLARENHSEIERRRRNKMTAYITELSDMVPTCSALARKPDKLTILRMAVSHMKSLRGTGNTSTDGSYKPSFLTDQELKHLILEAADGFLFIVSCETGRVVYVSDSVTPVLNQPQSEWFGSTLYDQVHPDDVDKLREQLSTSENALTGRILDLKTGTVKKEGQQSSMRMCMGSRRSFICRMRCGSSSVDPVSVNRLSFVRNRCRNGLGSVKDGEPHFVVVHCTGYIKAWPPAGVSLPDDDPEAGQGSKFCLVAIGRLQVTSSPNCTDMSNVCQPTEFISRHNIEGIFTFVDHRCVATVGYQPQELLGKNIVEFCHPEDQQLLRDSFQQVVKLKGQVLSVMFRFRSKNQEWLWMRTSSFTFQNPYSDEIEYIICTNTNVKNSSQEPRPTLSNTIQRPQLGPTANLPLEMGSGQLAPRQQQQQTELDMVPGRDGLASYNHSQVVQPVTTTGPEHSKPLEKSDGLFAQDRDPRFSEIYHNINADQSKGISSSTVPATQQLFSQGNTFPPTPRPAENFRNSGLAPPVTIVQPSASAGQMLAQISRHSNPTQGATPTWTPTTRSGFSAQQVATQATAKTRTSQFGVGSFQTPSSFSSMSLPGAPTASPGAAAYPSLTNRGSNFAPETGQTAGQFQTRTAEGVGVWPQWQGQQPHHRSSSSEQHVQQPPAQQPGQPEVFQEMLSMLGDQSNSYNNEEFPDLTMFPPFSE
UniProt P53762: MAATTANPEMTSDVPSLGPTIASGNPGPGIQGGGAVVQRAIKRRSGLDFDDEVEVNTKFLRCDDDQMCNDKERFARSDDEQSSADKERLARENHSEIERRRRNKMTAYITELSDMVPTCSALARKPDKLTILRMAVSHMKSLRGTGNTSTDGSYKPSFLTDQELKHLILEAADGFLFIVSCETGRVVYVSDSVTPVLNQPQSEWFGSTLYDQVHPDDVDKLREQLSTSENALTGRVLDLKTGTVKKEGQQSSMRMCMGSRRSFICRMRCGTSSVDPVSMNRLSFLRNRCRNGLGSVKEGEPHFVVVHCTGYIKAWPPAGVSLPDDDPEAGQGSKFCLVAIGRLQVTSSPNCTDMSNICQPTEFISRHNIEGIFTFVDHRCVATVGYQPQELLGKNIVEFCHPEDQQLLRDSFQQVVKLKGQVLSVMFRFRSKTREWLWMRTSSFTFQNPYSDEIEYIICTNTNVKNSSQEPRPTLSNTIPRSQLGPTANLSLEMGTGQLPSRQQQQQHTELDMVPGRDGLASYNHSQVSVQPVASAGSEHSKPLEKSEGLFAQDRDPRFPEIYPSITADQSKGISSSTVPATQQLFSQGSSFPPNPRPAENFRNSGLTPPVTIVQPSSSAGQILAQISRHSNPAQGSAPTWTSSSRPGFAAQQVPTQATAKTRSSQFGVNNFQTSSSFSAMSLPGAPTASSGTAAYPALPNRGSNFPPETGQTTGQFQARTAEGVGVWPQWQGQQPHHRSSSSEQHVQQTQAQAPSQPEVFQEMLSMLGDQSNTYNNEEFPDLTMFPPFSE
UniProt P35869: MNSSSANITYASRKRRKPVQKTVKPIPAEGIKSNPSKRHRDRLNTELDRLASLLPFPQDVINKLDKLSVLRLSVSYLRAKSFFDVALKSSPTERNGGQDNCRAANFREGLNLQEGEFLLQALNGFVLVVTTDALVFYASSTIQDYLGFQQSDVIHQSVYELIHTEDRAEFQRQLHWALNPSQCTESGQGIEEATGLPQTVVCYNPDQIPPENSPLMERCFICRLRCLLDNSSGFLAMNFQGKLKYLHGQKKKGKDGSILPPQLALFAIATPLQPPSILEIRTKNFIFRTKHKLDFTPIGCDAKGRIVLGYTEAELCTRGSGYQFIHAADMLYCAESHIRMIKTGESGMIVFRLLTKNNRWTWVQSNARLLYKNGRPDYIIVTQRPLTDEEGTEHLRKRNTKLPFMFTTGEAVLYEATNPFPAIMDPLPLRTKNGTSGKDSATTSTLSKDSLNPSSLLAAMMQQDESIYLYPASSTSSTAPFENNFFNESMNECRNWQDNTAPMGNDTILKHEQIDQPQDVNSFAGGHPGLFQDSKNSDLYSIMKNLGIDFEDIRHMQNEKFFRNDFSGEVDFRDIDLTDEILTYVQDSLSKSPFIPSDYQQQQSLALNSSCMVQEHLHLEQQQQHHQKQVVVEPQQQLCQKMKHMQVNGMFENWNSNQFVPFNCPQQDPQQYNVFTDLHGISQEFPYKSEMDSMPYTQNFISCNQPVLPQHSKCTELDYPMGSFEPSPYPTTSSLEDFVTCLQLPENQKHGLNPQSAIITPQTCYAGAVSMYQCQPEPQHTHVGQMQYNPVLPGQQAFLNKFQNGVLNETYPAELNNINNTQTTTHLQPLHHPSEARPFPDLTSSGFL
UniProt P30561: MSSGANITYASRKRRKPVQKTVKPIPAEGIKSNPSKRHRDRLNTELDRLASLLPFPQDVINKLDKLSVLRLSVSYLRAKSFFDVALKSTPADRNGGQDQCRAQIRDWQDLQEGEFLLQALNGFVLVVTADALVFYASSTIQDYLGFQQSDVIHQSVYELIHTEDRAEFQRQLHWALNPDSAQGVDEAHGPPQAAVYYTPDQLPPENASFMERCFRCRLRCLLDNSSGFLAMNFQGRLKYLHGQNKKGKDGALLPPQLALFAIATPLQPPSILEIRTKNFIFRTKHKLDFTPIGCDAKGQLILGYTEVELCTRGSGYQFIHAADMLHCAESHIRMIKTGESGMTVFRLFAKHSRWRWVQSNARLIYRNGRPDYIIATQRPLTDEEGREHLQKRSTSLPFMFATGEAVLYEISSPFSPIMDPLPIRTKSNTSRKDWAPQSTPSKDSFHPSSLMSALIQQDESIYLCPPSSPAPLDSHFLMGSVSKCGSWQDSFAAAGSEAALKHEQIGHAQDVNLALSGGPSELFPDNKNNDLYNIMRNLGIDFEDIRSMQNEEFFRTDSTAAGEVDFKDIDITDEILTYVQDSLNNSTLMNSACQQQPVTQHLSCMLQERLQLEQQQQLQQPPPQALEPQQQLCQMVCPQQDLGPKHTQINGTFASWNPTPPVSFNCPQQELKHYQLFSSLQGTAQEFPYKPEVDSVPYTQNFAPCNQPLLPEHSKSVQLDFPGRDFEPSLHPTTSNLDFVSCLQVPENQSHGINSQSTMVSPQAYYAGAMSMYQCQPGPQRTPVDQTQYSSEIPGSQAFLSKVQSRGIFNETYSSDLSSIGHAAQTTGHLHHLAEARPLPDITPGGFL

binding [1]	binding [2]	Substance
binds		human aryl hydrocarbon receptor (hAhR) (from UniProt P35869 1-848)
	binds	mouse aryl hydrocarbon receptor (mAhR) (from UniProt P30561 1-848)

— publication PMC7312509
